# Reference: the supplement of paper PMC3334620
# In all, about 33,000 sequences were measured (“E-score (-0.5 to 0.5)”: median about -0.0059, highest 2% from about 0.26 on). The list shows a part of the results.
# Molecular target: T1, Cin5 (UniProt P40917)
# T1 sequence: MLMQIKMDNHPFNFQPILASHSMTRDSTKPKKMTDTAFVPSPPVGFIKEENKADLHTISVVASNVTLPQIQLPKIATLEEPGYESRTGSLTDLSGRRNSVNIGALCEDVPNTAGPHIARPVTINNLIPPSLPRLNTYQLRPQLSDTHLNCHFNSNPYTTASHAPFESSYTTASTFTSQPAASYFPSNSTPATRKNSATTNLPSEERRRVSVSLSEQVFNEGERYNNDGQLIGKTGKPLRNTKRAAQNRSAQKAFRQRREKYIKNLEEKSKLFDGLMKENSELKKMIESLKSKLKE
# Assay: PBM E-score (8-mer binding enrichment) (E-score (-0.5 to 0.5)); higher = stronger / more preferred TF binding
# Conditions: protein concentration: 100 nM; construct: GST-full length
# Summary of the method: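 Universal all-10-mer Agilent arrays, fresh or stripped once, were converted to double-stranded form by primer extension. GST-tagged yeast transcription factors from PURExpress in vitro transcription/translation, full-length or DNA-binding domain only, were applied at about 100-200 nM and detected with fluorescent anti-GST. After masliner normalisation, the Universal PBM Analysis Suite scored each ungapped eight-base word together with its reverse complement by E-score.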
row,Sequence,PBM E-score
1,CTGTGAGC,-0.0369
2,GGAGGATA,-0.0068
3,ATCTCGAA,0.0759
4,ATTTCTGG,0.0764
5,AGCAGGCC,-0.259
6,AATAGTCA,0.0413
7,AACGTCTC,0.0617
8,CTACGCTA,-0.113
9,ATTTAAGG,-0.0712
10,TGAGGGAA,-0.0591
11,AATCATGG,-0.0172
12,ATTAATAA,0.336
13,ATCTCCGG,0.154
14,AACGAGCA,-0.0287
15,ATCCTATG,-0.0109
16,GCTCCAAA,-0.176
17,ACCTTCCA,-0.0697
18,AGGGCTTA,-0.0648
19,ACGACCTA,-0.016
20,AATTCGCT,0.325
21,ATGCAGTG,0.0118
22,AGCGTGAG,0.0199
23,AATGTGGT,0.16
24,CGGACTCA,-0.0444
25,AATAACCC,0.174

row,Sequence,PBM E-score
1,TAACAAGA,-0.0483
2,AAATACAG,0.119
3,GGACTCCC,-0.345
4,GATATGAC,0.0911
5,AGACCTAA,-0.0766
6,CAATCCCC,0.0168
7,TAATACGA,0.12
8,TCTAGAAA,0.00706
9,AGCGCTAA,0.123
10,CTCTATAC,-0.0333
11,ATTAGTGG,0.219
12,AAGTTAAG,-0.041
13,ACCGTTTA,-0.034
14,CATTAGGC,-0.266
15,ATACTCAA,0.204
16,CTCCAACA,0.0437
17,CATACGAC,-0.0512
18,AGTTCAAC,0.18
19,CATGCCGA,0.0868
20,AGTCTACA,-0.26
21,CAACTGTG,-0.0932
22,AGGGGGCG,-0.302
23,CCCTAAAC,-0.166
24,ATAGAATG,0.209
25,CGCGAGCA,0.0699

row,Sequence,PBM E-score
1,TGCTCGAA,-0.0801
2,GTTTCTGA,0.0462
3,AGACTAAC,0.0216
4,ACCGTAAC,-0.0293
5,AACCAGAT,0.0426
6,CGGGTCTC,-0.214
7,GGGAGTTA,-0.00691
8,CGGACCAA,0.0118
9,CTAAACGC,0.0872
10,GCATGGGC,-0.151
11,TACCACCA,-0.0388
12,ATTTCTGA,-0.0921
13,AAGCCCCC,-0.412
14,GGGGCAAC,-0.124
15,ATACTTAG,0.0186
16,GGCCTGCA,-0.335
17,AGTTTTCG,0.0694
18,CCCTCATA,0.012
19,ACCTATAC,0.0459
20,ATTCAACG,0.0816
21,ATTGTAAA,0.181
22,ATGGACTC,0.00164
23,TATAGATA,0.176
24,CTGGGTCA,-0.0951
25,AGTGGTGG,-0.049

row,Sequence,PBM E-score
1,CCCTGTTA,0.108
2,GGCGGCAC,-0.0185
3,GAGCTGTA,-0.117
4,CATGTGCG,0.0842
5,AAATAAAT,0.246
6,CGTCACTC,-0.173
7,TCACGCAA,0.145
8,AGGGGCTA,-0.16
9,CGTGCCAA,-0.103
10,ATCTTTCG,0.0728
11,AACAGTGG,0.0147
12,CCTACCCC,-0.0989
13,GATAGTAC,0.0953
14,CTGCCGAC,-0.0835
15,AAATCAGA,-0.0108
16,ACATAAAA,0.22
17,CAACCTGG,-0.00955
18,CCCCGGAA,-0.0533
19,ACGTCGAT,0.105
20,ACTAACTC,-0.124
21,AGACGGGA,-0.0668
22,ATTCTCCA,0.101
23,ACTTGTCT,-0.0498
24,CCACGCCC,-0.266
25,CCCCCACA,-0.446

row,Sequence,PBM E-score
1,ACGTTTGC,-0.0322
2,ACAGACAT,-0.00061
3,ACCAATCA,0.16
4,GTCTTTCA,-0.207
5,AGGGCCCG,-0.202
6,TACCATGA,0.046
7,CTGATAAG,0.11
8,ACACTTTA,0.133
9,CAATTAGC,0.0636
10,CCGTCATA,-0.03
11,AAGCGGAC,0.0173
12,GACCGCGC,-0.016
13,ATTCGCTG,0.0687
14,AACCGCTT,0.0104
15,ATCGGGAG,-0.115
16,CGAGAAAC,-0.0776
17,GCGAAGTA,0.0807
18,ACCGGGGC,-0.136
19,CACGGTGG,0.0279
20,CTTCACAA,-0.121
21,ATCGACAC,0.00721
22,ACGGTGAC,-0.127
23,CCACGCTC,-0.237
24,ACAATGAG,-0.0282
25,GCTGGTCA,-0.194

row,Sequence,PBM E-score
1,ATATGCAG,-0.0746
2,CCTCAAAG,-0.241
3,AGCAGTGA,0.2
4,AGGGTCGA,-0.084
5,AACTGTCT,0.0125
6,CCGTTTAG,-0.0924
7,ATGGTGGA,-0.0343
8,ACCTCAGT,0.081
9,AGTGAGTC,-0.0677
10,AAGCGTTA,0.00153
11,ATTTAGAG,0.0567
12,GCCCTTCC,-0.388
13,CAATTTGC,0.109
14,GACGCCAC,-0.202
15,ATCGGACC,-0.0615
16,CCCCCAAC,-0.382
17,GTAGCAGA,0.0836
18,ACCCCGCG,-0.0435
19,TAGAACCA,-0.0523
20,AAGGAAGC,-0.145
21,GCAAGATA,0.117
22,CCTGTGGA,-0.239
23,GTGCTGGA,-0.175
24,GAGGTTTA,0.00517
25,GTAATAAC,0.0911

# Look-ups from above:
# For PBM E-score, AATAACCC has the entry 0.174
# For PBM E-score, ACGTTTGC has the entry -0.0322
# For PBM E-score, ACTTGTCT has the entry -0.0498
# For PBM E-score, GACGCCAC has the entry -0.202
# For PBM E-score, CGGGTCTC has the entry -0.214

# More results follow:

row,Sequence,PBM E-score
1,CTAGATGA,0.00071
2,CAGGCACA,-0.284
3,AGAGGTGC,-0.109
4,ACGCTAAC,0.0232
5,GCGACCGC,-0.142
6,ATGCCGGC,-0.0207
7,CTGCTCAC,-0.199
8,CTGTCAAC,-0.00778
9,GAACTGTA,0.155
10,GGCATCAA,-0.216
11,CAAATAGG,-0.0717
12,CCATCACG,-0.0302
13,ACACGACC,-0.109
14,GTAGTGCA,0.126
15,AGACTTGG,-0.221
16,CCGGCCTC,-0.227
17,CATCTCGA,0.104
18,GCCGGTAA,0.112
19,ATAGTTCC,0.19
20,AACTAACT,0.0131
21,CAAATTCG,0.153
22,GCAGAACC,-0.0607
23,TCAAAAGA,0.07
24,ACCTGCGA,-0.141
25,AATTTGTA,0.247

row,Sequence,PBM E-score
1,TAGCTCGA,0.0043
2,CCTTCTGC,-0.126
3,ACCAACGC,-0.0288
4,AATTCGCG,0.0954
5,AGGATAAA,0.177
6,AGGAAACA,0.0393
7,ATTGTTAG,0.109
8,GTATTCTA,0.194
9,CTGATGGC,-0.0283
10,AATCAGCA,0.176
11,ACAACATA,0.268
12,GACGACCA,-0.107
13,AACGCTCA,-0.116
14,CCACTTAG,-0.0416
15,CCTGCCCC,-0.239
16,CTATTATC,0.108
17,CTCTAAGA,-0.0756
18,GACTCAAA,-0.171
19,CAATCTGC,-0.0434
20,GATGAGTA,0.152
21,CAGCGTCC,-0.13
22,CAAACACC,-0.122
23,ATTCCGGC,0.0228
24,GTGGCTGA,0.0341
25,GTAGGGAA,0.00147

row,Sequence,PBM E-score
1,GTCTTACA,-0.0251
2,ACAGCTTC,-0.053
3,CAAAACCA,0.25
4,GAATCTTA,0.18
5,ATAAGTGC,-0.0573
6,AAAACCTG,-0.101
7,GATTCACA,0.0537
8,GTCTCAAA,-0.0688
9,CCCTCGTC,-0.121
10,CGTCCTGA,-0.113
11,CTCAAAAC,0.0347
12,CGGGATGA,0.0495
13,CAGTTTAG,-0.152
14,CAAACCTC,-0.00399
15,GGATGTAC,0.0601
16,AAGATTCT,-0.106
17,GTTCACGA,-0.00376
18,CTCTACAG,-0.0861
19,CAGTTCTA,-0.127
